# Results of single-concentration screens

Toxoplasma: 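Assay of Toxoplasma gondii numbers, read through their beta-galactosidase reporter with a colour substrate. Tested at 10 µM. Higher reads as fewer parasites (inferred from which compounds were picked for retests). Of about 67,000 compounds tested this way, about 260 (0.38%) reached 50% or more in at least one test.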
Leishmania in macrophages: 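Cell assay of Leishmania donovani living inside macrophages; the read-out is not stated. Tested at 30 µM. The record gives no direction; compounds that gave an IC50 in retests scored well above the rest, so higher reads as stronger inhibition. About 69,000 compounds were tested under these conditions; 1.5% (about 1,000) showed 50% or more at least once.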

Results are given as percent effect.
The controls that fix the scale are not given in the record; negative values are as filed.
Compounds were drawn at random from those tested, without regard to their results.
Two or more numbers in one place are separate tests of the same structure; such repeats can differ widely.

structure: Cn1nc(C2CN(S(C)(=O)=O)C2)c2nccnc21
Toxoplasma: 14.07
Leishmania in macrophages: -11.29 & 12.73

structure: Cc1ccc(CN(CCCn2ccnc2)Cc2[nH]cnc2C)s1.O=C(O)CC(O)(CC(=O)O)C(=O)O
Toxoplasma: -42.54
Leishmania in macrophages: 17.94 & 17.56

structure: OC1(CN2CCCCC2)CCN(c2nccc(C(F)(F)F)n2)C1 (centres unmarked)
Toxoplasma: -24.12
Leishmania in macrophages: -4.976

structure: O=C(NCC(Cc1cccc(F)c1)N1CCCC1=O)c1ccc(=O)[nH]n1 (centres unmarked)
Toxoplasma: -7.256
Leishmania in macrophages: -23.68 & 36.53

structure: Cc1noc(C)c1CN1CCc2ncc(CN3CCCC3)n2CC1.O=C(O)C(F)(F)F.O=C(O)C(F)(F)F
Toxoplasma: -1.073
Leishmania in macrophages: 8.788

structure: Cc1nc(C(=O)N(C)C2CC(=O)N(Cc3ccccc3)C2=O)cs1 (centres unmarked)
Toxoplasma: -1.618
Leishmania in macrophages: -17.25

structure: COCC(C)N(C)C(=O)NC1CCN(S(C)(=O)=O)CC1 (centres unmarked)
Toxoplasma: -2.087
Leishmania in macrophages: -13.13

structure: O=C(NCCc1ccc(Cl)cc1)c1coc(CN2CCOCC2)c1
Toxoplasma: 4.485
Leishmania in macrophages: -3.354

structure: Cc1cccc2nc(C(=O)N3CCC(Nc4cccnn4)CC3)cn12
Toxoplasma: -4.903
Leishmania in macrophages: -9.268

structure: CCN(C)C(=O)NCC1(CN2CCOCC2)CCCCC1
Toxoplasma: 16.6
Leishmania in macrophages: -2.847

structure: CCc1[nH]ncc1C(=O)N1CCCC(n2cccn2)C1 (centres unmarked)
Toxoplasma: 1.05
Leishmania in macrophages: 12.73

structure: CC(=O)Nc1ccc(Oc2cc(C)nc(C3CCNCC3)c2)cc1.Cl
Toxoplasma: 7.337
Leishmania in macrophages: 4.584

structure: Cc1cccnc1NC(=O)c1ccc(-n2cncn2)nn1
Toxoplasma: -6.049
Leishmania in macrophages: 13.49 & -23.88

structure: COCC(C)N(C)C(=O)c1ccc2nncn2c1 (centres unmarked)
Toxoplasma: -8.771
Leishmania in macrophages: 1.072

structure: CC(C)(C(=O)NCc1ccccc1F)n1cc(Br)cn1
Toxoplasma: -13.42
Leishmania in macrophages: -6.229

structure: O=C1CN(C(=O)CC2c3ccccc3CCc3ccccc32)CCN1
Toxoplasma: 8.671
Leishmania in macrophages: -5.717

structure: COc1ccc(Cl)cc1CS(=O)(=O)CC(=O)N(C)Cc1ccccc1F
Toxoplasma: 1.506
Leishmania in macrophages: 19.88

structure: Cc1cc(CN2CCN(C(=O)Nc3cccnc3)CC2)on1
Toxoplasma: -20.61
Leishmania in macrophages: 20.03

structure: Cc1cc(N2CCCC2c2nnc3n2CCCCC3)nc(N)n1 (centres unmarked)
Toxoplasma: 38.21
Leishmania in macrophages: -5.339

structure: O=c1[nH]c2nc(N3CCCC3)ncc2c(=O)n1-c1cccc(F)c1
Toxoplasma: 1.966
Leishmania in macrophages: 30.21

structure: CSC1=Nc2c(cnn2-c2ccc(Cl)cc2)C2=NCCCN12
Toxoplasma: 14.24
Leishmania in macrophages: 15.7

structure: CN(C)C(=O)Cn1c2c(ccc1=O)CC(NCc1ccoc1)CC2.O=C(O)C(F)(F)F (centres unmarked)
Toxoplasma: -3.074
Leishmania in macrophages: 33.36

structure: Cn1cccc1C(=O)NCc1cnc2n1CCN(C(=O)N1CCCC1)C2
Toxoplasma: -2.991
Leishmania in macrophages: 38.15

structure: COc1cc(C)sc1C(=O)N1CC(c2cccnc2)C1
Toxoplasma: -0.8078
Leishmania in macrophages: 7.717

structure: O=C(O)C(F)(F)F.O=C(O)C(F)(F)F.O=C(c1cccnc1)N1CCC[C@]2(C[C@H](Oc3ncccc3F)CO2)C1
Toxoplasma: 8.432
Leishmania in macrophages: 55.01

structure: CC(=O)N1CCCC1CCc1ccc(Cl)nn1 (centres unmarked)
Toxoplasma: -12.58
Leishmania in macrophages: 28.81

structure: CCc1nccn1-c1cccc(C2CCCN2S(=O)(=O)N(C)C)n1 (centres unmarked)
Toxoplasma: -5.2
Leishmania in macrophages: 21.92 & 18.97

structure: Cc1cccc(CNc2cncc(-n3cccn3)n2)c1
Toxoplasma: -0.1775
Leishmania in macrophages: 17.48

structure: Cc1c(-c2ccccc2)ncn1CCCNc1cccnc1
Toxoplasma: 5.286
Leishmania in macrophages: 19.19

structure: Cc1cc(NS(=O)(=O)CC2CCCCO2)ccc1F (centres unmarked)
Toxoplasma: -8.965
Leishmania in macrophages: 18.26

structure: CN(Cc1nnc(C2CC2)n1C)S(=O)(=O)c1ccccc1C#N
Toxoplasma: 1.994
Leishmania in macrophages: 14.58 & 27.94

The values are deposited in ChEMBL (CHEMBL3988442, “University of Dundee, Small-Polar-MMV Screening Library” (2021)).